Data reported in patent US11965039B2 (priority 2018, dated 2024).
Positions of bridges follow the written chain, without caps; N, C: chain ends.

Assay: general procedure: Fmoc solid-phase peptide synthesis; TentaGel S RAM
Details: analytical HPLC and MS; for final HPLC purity: oxidative folding step; for crude purity (method not given): whole synthesis

Substance	final HPLC purity	crude purity (method not given)
Ac-ICIWQDWGAHRCT-NH2 (disulfide 2-12; SMILES CC[C@H](C)[C@H](NC(C)=O)C(=O)N[C@H]1CSSC[C@@H](C(=O)N[C@H](C(N)=O)[C@@H](C)O)NC(=O)[C@H](CCCNC(=N)N)NC(=O)[C@H](Cc2c[nH]cn2)NC(=O)[C@H](C)NC(=O)CNC(=O)[C@H](Cc2c[nH]c3ccccc23)NC(=O)[C@H](CC(=O)O)NC(=O)[C@H](CCC(N)=O)NC(=O)[C@H](Cc2c[nH]c3ccccc23)NC(=O)[C@H]([C@@H](C)CC)NC1=O)	92%	˜30%
Ac-SEFC(1)I[1-Me-Trp]QDWGEHRC(1)[Sar]EGA-K([17-carboxy-heptadecanoyl][γGlu]G[Peg3][γGlu][Peg3])-NH2	91%	˜41-48%
